# Assay results: article PMC6123711, “Conformational signatures in β-arrestin2 reveal natural biased agonism at a G-protein-coupled receptor” (Communications Biology, 2018)
# The chains behind the UniProt entries cited, without tags or fusion partners. Where a name states a change or a piece, a line headed by the entry shows the natural chain unless it says otherwise. A line that says so, or that is headed by a name, gives the form on record, which may keep a tag or linker.
# UniProt P49407: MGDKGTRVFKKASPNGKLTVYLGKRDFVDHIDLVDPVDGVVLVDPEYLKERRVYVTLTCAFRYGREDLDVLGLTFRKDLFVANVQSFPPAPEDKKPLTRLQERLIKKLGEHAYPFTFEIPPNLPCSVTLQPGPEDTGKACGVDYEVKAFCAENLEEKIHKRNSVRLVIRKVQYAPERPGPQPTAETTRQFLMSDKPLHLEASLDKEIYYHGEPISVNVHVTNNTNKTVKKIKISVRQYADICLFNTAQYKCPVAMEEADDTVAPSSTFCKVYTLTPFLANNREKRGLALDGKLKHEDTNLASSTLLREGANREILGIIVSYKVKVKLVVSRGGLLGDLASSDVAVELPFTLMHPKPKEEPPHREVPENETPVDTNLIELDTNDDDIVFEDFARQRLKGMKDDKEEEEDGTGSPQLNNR
# UniProt P32121: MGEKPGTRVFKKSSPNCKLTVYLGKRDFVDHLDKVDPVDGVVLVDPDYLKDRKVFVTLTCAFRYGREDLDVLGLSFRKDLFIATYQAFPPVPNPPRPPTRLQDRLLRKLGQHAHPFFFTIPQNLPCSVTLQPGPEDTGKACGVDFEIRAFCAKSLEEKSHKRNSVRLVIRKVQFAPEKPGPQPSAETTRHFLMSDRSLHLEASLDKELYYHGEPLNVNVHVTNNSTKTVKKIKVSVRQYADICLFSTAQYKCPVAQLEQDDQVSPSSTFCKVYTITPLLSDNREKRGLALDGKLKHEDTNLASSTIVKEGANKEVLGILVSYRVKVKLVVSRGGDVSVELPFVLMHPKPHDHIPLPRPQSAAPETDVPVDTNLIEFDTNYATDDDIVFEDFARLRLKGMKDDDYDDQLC
# β-arrestin2–FlasH1 (NanoBit construct) (P32121, form named): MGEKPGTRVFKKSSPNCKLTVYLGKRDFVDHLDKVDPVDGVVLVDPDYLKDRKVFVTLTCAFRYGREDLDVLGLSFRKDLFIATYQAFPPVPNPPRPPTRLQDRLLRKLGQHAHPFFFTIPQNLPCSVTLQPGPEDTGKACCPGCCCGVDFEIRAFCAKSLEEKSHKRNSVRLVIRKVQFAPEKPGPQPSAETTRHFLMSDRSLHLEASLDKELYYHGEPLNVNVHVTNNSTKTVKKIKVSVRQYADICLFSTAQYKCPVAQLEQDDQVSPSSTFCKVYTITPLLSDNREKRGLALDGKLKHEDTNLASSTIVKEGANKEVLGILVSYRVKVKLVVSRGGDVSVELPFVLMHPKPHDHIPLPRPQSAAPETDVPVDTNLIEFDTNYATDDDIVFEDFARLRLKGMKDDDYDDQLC
# β-arrestin2–FlasH2 (NanoBit construct) (P32121, form named): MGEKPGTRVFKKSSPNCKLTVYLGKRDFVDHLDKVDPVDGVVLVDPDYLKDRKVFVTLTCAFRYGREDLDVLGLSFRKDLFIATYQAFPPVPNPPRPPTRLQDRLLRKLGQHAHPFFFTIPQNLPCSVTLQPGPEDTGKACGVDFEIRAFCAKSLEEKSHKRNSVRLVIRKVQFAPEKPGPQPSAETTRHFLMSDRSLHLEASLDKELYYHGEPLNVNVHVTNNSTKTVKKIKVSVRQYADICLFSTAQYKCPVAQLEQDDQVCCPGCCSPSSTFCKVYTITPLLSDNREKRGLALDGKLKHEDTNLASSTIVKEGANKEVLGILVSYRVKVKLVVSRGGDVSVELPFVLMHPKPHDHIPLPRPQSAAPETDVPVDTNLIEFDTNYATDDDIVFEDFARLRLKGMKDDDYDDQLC
# Results are given in words; binding and its absence hold for the method and conditions named. Binding seen in cells or lysates may run through a third protein. Some binding calls cover weakened binding; strength is not graded here.
# Biological target: T1, human galanin receptor 2 (Galr2) containing the LgBiT at the C terminus (human) (UniProt O43603)
# T1 sequence: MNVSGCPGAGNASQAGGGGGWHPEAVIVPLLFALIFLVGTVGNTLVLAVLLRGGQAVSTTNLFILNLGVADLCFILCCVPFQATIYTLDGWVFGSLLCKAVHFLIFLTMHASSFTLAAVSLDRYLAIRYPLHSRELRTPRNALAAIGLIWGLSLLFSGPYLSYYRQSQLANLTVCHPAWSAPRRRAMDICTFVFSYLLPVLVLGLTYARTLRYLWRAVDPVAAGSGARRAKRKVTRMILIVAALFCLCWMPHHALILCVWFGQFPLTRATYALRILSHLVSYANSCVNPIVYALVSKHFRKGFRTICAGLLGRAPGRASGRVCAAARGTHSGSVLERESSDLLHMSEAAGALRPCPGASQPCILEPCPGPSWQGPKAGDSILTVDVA
# Assay: split reporter; NanoBit complementation in live HEK293 cells transiently transfected with Galr2 and a β-arrestin construct, one with LgBit and one with SmBit; OPTIMEM, room temperature, furimazine; luminescence every minute after adding Galanin, Spexin or Fmoc-dA4-dQ14 (1 μM for the kinetic traces; dose–response at 5 min)
row,binding,Substance
1,binds,β-arrestin1 fused to a NanoBiT subunit (from UniProt P49407 1-418)
2,binds,β-arrestin2 construct containing the SmBit (from UniProt P32121 1-409)
3,binds,β-arrestin2–FlasH1 (NanoBit construct) (from UniProt P32121 1-140; P32121 141-409)
4,binds,β-arrestin2–FlasH2 (NanoBit construct) (from UniProt P32121 1-263; P32121 264-409)
